# This is one part of the list. Most entries show no effect beyond the scatter of the controls.
# The chains behind the UniProt entries cited, without tags or fusion partners. Where a name states a change or a piece, a line headed by the entry shows the natural chain unless it says otherwise.
# UniProt P51805: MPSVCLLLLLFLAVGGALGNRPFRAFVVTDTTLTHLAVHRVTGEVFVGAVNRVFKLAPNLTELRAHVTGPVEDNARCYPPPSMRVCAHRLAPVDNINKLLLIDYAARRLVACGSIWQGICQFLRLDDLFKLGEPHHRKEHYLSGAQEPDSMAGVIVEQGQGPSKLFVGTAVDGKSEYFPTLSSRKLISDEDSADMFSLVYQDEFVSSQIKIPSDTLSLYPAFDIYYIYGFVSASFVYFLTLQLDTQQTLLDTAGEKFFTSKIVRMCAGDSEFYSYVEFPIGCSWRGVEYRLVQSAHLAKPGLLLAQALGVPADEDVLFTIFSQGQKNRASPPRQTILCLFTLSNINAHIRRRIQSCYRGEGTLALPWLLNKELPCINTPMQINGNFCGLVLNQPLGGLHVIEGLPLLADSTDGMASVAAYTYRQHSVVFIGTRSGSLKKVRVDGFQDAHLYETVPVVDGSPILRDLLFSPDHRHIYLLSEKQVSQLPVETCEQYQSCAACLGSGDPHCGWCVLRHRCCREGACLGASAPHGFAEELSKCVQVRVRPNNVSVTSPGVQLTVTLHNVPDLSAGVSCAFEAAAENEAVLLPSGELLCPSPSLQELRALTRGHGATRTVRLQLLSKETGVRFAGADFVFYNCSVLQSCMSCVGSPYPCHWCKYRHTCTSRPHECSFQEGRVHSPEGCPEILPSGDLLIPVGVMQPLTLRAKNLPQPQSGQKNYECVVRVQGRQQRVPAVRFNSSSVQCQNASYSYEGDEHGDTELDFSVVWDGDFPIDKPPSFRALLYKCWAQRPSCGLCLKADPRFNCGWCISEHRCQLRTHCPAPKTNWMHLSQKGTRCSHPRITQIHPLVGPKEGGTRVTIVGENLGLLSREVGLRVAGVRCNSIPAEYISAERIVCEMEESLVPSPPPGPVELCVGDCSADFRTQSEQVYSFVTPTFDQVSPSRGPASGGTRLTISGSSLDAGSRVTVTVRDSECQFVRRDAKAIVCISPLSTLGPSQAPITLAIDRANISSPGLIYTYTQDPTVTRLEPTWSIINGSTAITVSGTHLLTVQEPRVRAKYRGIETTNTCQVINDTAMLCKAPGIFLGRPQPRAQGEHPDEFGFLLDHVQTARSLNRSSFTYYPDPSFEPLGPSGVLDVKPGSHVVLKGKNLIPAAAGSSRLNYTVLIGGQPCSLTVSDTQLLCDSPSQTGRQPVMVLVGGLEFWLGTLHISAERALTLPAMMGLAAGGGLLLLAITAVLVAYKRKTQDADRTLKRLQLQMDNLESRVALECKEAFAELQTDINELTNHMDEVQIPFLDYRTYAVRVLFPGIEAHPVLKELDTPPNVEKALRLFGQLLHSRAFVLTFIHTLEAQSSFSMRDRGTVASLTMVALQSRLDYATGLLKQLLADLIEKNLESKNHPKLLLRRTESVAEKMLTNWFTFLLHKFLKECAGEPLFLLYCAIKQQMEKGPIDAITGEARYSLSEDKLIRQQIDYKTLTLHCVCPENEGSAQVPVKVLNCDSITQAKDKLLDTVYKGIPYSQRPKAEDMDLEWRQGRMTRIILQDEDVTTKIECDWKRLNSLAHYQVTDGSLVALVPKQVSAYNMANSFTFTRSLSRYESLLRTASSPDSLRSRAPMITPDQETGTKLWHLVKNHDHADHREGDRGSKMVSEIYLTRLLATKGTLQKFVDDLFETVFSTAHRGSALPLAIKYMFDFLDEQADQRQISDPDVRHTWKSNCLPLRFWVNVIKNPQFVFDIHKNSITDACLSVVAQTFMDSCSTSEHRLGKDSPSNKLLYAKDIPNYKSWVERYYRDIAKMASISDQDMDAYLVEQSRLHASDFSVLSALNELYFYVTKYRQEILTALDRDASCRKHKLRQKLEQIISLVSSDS
# UniProt P50453: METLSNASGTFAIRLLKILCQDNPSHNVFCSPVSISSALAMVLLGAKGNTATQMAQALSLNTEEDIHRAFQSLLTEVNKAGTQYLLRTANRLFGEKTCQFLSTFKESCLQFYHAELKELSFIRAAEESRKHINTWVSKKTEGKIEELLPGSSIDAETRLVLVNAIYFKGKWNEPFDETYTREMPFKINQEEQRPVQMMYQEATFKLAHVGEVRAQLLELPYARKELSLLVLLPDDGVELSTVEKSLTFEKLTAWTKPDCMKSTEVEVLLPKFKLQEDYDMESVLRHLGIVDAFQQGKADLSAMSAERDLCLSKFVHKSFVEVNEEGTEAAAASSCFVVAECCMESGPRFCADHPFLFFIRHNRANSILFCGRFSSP
# UniProt P47897: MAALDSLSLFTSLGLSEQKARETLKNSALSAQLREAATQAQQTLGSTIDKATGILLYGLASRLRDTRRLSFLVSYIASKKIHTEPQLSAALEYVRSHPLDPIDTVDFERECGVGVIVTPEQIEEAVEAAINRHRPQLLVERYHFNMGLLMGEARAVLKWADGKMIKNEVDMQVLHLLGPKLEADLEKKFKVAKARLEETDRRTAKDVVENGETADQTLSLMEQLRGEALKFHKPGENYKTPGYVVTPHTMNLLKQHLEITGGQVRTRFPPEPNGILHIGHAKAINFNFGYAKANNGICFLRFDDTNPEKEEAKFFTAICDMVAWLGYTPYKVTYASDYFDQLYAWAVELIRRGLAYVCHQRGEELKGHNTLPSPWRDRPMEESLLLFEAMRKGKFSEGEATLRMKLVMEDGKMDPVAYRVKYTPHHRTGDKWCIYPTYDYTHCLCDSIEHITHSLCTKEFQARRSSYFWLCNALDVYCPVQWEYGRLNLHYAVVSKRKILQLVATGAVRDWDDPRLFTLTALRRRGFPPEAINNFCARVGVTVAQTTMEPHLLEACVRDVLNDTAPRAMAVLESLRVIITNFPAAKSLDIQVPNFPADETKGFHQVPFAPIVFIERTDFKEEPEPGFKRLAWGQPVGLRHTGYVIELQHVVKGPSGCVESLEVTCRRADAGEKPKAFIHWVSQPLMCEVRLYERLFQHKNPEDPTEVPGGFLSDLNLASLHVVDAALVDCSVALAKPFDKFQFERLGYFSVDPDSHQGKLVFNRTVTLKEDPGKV
# UniProt P53611: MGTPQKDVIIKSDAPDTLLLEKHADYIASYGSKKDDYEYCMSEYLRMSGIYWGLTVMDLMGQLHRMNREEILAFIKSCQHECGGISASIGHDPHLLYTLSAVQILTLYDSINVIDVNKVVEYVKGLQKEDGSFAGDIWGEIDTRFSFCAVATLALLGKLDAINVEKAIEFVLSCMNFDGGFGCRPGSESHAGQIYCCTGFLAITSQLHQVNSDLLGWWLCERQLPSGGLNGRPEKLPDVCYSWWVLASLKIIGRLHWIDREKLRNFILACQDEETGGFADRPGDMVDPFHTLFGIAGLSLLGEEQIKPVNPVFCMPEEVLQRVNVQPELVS
# UniProt P48382: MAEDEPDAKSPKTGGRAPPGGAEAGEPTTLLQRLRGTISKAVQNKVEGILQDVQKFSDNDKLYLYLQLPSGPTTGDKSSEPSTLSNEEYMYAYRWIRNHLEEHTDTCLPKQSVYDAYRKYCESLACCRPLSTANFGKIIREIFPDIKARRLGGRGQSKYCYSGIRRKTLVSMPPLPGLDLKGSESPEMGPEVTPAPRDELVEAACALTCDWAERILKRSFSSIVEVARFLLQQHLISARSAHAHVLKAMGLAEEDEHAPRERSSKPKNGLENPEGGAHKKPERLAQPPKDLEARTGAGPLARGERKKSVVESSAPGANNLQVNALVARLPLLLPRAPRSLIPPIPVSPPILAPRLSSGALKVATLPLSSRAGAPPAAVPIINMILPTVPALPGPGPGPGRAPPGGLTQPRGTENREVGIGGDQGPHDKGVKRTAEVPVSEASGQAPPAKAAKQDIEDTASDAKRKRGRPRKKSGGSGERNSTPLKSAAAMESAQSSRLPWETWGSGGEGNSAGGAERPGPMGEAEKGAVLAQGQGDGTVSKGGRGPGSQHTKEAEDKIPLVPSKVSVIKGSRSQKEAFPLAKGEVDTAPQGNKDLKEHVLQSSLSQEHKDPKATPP
# UniProt P49336: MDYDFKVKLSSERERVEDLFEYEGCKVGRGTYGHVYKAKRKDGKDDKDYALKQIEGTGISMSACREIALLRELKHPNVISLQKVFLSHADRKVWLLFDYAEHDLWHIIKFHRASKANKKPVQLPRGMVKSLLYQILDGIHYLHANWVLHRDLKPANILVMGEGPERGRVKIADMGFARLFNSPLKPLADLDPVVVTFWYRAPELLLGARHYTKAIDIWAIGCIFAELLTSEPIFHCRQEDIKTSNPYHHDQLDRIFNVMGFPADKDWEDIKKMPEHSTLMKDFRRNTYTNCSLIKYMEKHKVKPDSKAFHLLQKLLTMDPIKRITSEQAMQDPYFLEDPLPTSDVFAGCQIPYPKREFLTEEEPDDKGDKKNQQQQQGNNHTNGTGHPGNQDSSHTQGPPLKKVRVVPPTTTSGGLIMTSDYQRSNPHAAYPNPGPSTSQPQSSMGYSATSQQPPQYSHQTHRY
# UniProt P50226: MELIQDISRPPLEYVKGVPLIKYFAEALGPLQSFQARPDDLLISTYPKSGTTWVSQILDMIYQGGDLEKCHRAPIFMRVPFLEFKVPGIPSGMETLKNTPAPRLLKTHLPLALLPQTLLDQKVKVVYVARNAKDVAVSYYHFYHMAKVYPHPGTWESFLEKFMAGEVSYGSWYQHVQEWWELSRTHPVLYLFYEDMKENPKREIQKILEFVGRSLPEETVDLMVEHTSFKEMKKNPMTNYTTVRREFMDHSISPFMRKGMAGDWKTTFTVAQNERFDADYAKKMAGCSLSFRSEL
# Compound: CN[C@@H]1C[C@H]2O[C@@](C)([C@@H]1OC)n1c3ccccc3c3c4c(c5c6ccccc6n2c5c31)C(=O)NC4 [staurosporine]
# Experiment: log2 fold change of tryptic peptide abundance, ligand vs vehicle (limited proteolysis) (log2 ratio); higher = more trypsin-susceptible (destabilized)
# Conditions: ligand concentration: 20 uM; sample: K562 cleared lysate; digestion: 4 min, 22 C (HT-PELSA RT4min, Orbitrap Astral)
row,Target,log2 fold change
1,"PLXNA3 (peptide sequence: TASSPDSLR, peptide start residue: 1629) (UniProt P51805)",0.0942
2,"SERPINB9 (peptide sequence: HLGIVDAFQQGK, peptide start residue: 286) (UniProt P50453)",1.29
3,"QARS (peptide sequence: LFTLTALR, peptide start residue: 516) (UniProt P47897)",-0.428
4,"RABGGTB (peptide sequence: GTPQKDVIIK, peptide start residue: 2) (UniProt P53611)",0.253
5,"RFX5 (peptide sequence: QDIEDTASDAKR, peptide start residue: 453) (UniProt P48382)",-0.805
6,"CDK8 (peptide sequence: ELKHPNVISLQK, peptide start residue: 72) (UniProt P49336)",-1.12
7,"UniProt P50226 (peptide sequence: SLPEETVDLMVEHTSFK, peptide start residue: 214)",-0.183

# From the supplement of paper PMC12819154, “High-throughput peptide-centric local stability assay extends protein–ligand identification to membrane proteins, tissues and bacteria” (Nature Structural & Molecular Biology, 2025)
